Assay results published in article PMC6925144, “A prospective compound screening contest identified broader inhibitors for Sirtuin 1” (Scientific Reports, 2019).
The full ranking holds about 3,200 compounds; the median of “TSA(with NAD+) / Primary screening (TSA) / delta Tm (K)” is about -0.04, and the highest 2% start at about 0.37. This is one part of the list.

By UniProt entry, the sequences of proteins in these tests, tags left out. Residues count along the entry.
UniProt Q96EB6, 2-747 limits assumed: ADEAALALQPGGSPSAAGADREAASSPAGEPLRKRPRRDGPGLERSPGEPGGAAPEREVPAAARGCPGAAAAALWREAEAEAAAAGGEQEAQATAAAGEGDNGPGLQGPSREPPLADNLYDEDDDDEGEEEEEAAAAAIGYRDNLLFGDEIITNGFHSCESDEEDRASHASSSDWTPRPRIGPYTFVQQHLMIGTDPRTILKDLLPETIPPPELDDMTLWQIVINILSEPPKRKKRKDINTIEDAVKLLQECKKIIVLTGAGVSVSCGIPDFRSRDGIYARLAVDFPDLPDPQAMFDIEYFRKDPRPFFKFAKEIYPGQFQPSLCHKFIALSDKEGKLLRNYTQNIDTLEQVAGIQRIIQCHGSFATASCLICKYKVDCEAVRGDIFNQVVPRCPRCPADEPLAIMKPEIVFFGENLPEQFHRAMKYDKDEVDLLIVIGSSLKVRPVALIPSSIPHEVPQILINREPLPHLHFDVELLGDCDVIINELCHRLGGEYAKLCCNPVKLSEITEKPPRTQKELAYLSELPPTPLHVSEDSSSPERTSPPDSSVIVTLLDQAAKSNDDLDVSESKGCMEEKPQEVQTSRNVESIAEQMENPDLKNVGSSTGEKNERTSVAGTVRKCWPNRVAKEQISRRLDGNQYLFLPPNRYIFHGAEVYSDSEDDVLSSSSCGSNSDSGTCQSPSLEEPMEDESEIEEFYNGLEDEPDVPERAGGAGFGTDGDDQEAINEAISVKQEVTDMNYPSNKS

biological target: NAD-dependent deacetylase Sirtuin 1 (human, UniProt Q96EB6); experiment: primary screen, delta tm; set-up: single well (n = 1, as 'the same TSA'); conditions: 10 µM
Protocol: A total of 3,192 compounds extracted from the proposed lists were first screened by thermal shift assay (TSA), which determined a melting temperature shift (ΔTm) of Sirtuin 1 upon the addition of a test compound at a concentration of 10 µM (n = 1) with primary hit criteria of ΔTm > 0.45 K or ΔTm < −1.5 K. Primary hits (48 compounds) were retested in the same assay at three concentrations (5, 10, 20 µM, n = 4) for hit confirmation and for dose-dependency check. Secondary hits (41 compounds) were checked their selectivity for Sirtuin 1 based on counterscreening on unrelated protein targets (bovine carbonic anhydrase (CA) and recombinant SH2 domain of hABL1 kinase (ABL1)) at three different concentrations (5, 10, 20 µM, n = 4), which yielded 38 hit compounds, hereafter referred to as TSA hits. The TSA screening above was conducted in the absence of NAD+. As noted, the structure of Sirtuin 1 is different in the presence of NAD+ and substrate. The chemical profile of TSA hits found from the different conditions could be different. […] As a result, 39 TSA hits were found.

Structure (SMILES)	TSA(with NAD+) / Primary screening (TSA) / delta Tm (K)
CCOc1cccc(C2C(C(=O)c3cc4ccccc4o3)=C(O)C(=O)N2CCCN2CCOCC2)c1 (stereo not drawn)	0.06
O=C(CCl)c1c(-c2ccc(F)cc2)[nH]c2ccccc12	0.12
Cn1cc(C2CCN(c3ncnc4ccccc34)CC2)cn1	-0.04
COC(=O)CCCNC(=O)c1cc(-c2ccco2)nc2c(C(N)=O)ncn12	-0.02
Nn1c(S)nnc1-c1ccccc1F	-0.29
CC1CCc2c(sc3ncnc(N4CCN(Cc5csc(-c6ccco6)n5)CC4)c23)C1 (stereo not drawn)	-0.06
O=C(Cn1cnc2sc3c(c2c1=O)CCC3)N1CCc2ccccc2C1	-0.16
Cc1ccccc1C1CN(C(=O)C2CCc3n[n-]nc3C2)CCO1 (stereo not drawn)	-0.19
CC(NC(=O)COC(=O)CCCN1C(=O)c2cccc3cccc(c23)C1=O)C12CC3CC(CC(C3)C1)C2 (stereo not drawn)	-0.11
OCCCCN1CCN(c2ncnc3cc(Cl)ccc23)CC1	-0.08
Cc1cc(C=C2C(=O)NC(=S)NC2=O)c(C)n1-c1ccccc1Cl	-1.22
NC(=O)c1ccc(NC(=O)COC(=O)/C=C/c2ccc3c(c2)OCO3)cc1	-0.23
CN(C(=O)c1cc(O)nc2ccccc12)c1ccc2ccccc2c1	-0.03
O=C(CN1CCN(C(=O)c2cc(-c3ccncc3)nc3ccccc23)CC1)Nc1ccccc1Cl	-0.21
NC(=O)C1CCCCCC1NC(=O)c1ccncc1Cl (stereo not drawn)	-0.11
O=C(N/N=C/c1ccc(O)cc1O)C(=O)N/N=C/c1ccc(O)cc1O	0.06
COc1ccc(/C=C2\Oc3cc(OC)ccc3C2=O)c(OC)c1	0.15
CC(=O)Nc1ccc(-c2csc(NC(=O)Cn3[nH]c(=O)ccc3=O)n2)cc1	0.05
CC(C)OCCN	-0.12
CC1CN(CC(=O)c2ccccc2Cl)CC(C)O1 (stereo not drawn)	-0.22

Structure (SMILES)	TSA(with NAD+) / Primary screening (TSA) / delta Tm (K)
CN(c1cccc(Cl)c1)S(=O)(=O)c1cccc(C(=O)Nc2ncc(C(N)=O)s2)c1	0.31
CCC(C)(C)NC(=O)c1ccc2[nH]c(=O)c(=O)[nH]c2c1	-0.01
CN(C)c1ccc(CNc2ncnc3ccsc23)cn1	-0.11
O=C1CC2(CCCCC2)CC(=O)C1=CN/N=C1/C(=O)Nc2ccccc21	-0.02
Cc1ccc(C)c(C(=O)CCC(=O)OC(C)C(=O)Nc2ccc(C(N)=O)cc2)c1 (stereo not drawn)	-0.01
Cc1nc(CSc2nccn2Cc2ccccn2)cs1	-0.01
c1ccc2[nH]c(-c3nc4c5ccccc5ncn4n3)cc2c1	0.01
CN1CCC(NC(=O)c2cnc(N)c(Cl)c2)C1c1ccc(F)cc1 (stereo not drawn)	-0.09
COc1ccc(NC(=O)CCN2C(=O)c3ccc(C)cc3C2=O)cc1OCc1cn2ccccc2n1	-0.11
COCCN(C)CCN	-0.13
N#Cc1c2c(c(Cl)n3c1nc1ccccc13)CCCC2	0.03
O=C(CC12CC3CC(CC(C3)C1)C2)NNC(=O)c1ccc(NS(=O)(=O)/C=C/c2ccccc2)cc1	0.21
Cc1c(C(=O)C2=C(O)C(=O)N(CCCN3CCOCC3)C2c2cccs2)cnn1-c1ccccc1 (stereo not drawn)	-0.06
COc1ccnc(N2CCN(C(=O)c3ccc(C(N)=O)s3)CC2)n1	-0.13
COc1ccc(CN(C)C(=O)c2cnc3ccccn3c2=O)cc1F	0.15
Cn1cc(S(=O)(=O)N2CCN(C(=O)Cn3cnc4ccc(F)cc4c3=O)CC2)cc1C(N)=O	-0.13
O=C1OC(C(=O)O)Cc2ccccc21 (stereo not drawn)	-0.01
COCc1nnc(S)[nH]1	-0.18
Cc1ccc(C(=O)C2CCN(c3cc(=O)n4ccccc4n3)CC2)cc1	-0.06
CC(C(=O)Nc1cccc2ccccc12)N1CCc2ccc(O)cc2CC1 (stereo not drawn)	-0.03

Structure (SMILES)	TSA(with NAD+) / Primary screening (TSA) / delta Tm (K)
NS(=O)(=O)Nc1cccc(CNC(=O)CCCc2nc3ccccc3c(=O)[nH]2)c1	-0.03
CCOc1ccccc1NC(=O)c1cccc(S(=O)(=O)NC(C)C23CC4CC(CC(C4)C2)C3)c1 (stereo not drawn)	0.17
CC(C)C(C)CN (stereo not drawn)	0.06
O=C1NC(=S)N/C1=C\c1ccccc1OCc1ccc(C(=O)O)cc1	0.23
N#Cc1ccccc1Sc1ccccc1C(=O)OCC(=O)NC(=O)NC12CC3CC(CC(C3)C1)C2	0.06
COc1ccc(CCSc2nnc(-c3cccnc3)n2N)cc1	0.01
Cc1ccc2nc(Cl)c(C=C3C(=O)NC(=S)NC3=O)c(=O)n2c1	-0.22
CCc1nsc(NCc2cccnc2N2CCC(C(N)=O)CC2)n1	-0.24
OCCN(c1ncnc2c1oc1ccccc12)C1CC1	-0.19
COc1ccc(CCCC(=O)Nc2ccc(C(N)=O)cc2OCC(F)F)cc1	-0.09
COCCNc1oc2c(c1-c1ccccc1[N+](=O)[O-])c(=O)oc1c(C)cccc12	-0.12
Cn1cnc(-c2ccc(OCC(=O)Nc3cccc(C(=O)NC4CC4)c3)cc2)n1	-0.28
O=C(/C=C/c1ccccn1)NCc1ccc(OCC2CCCO2)cc1 (stereo not drawn)	-0.04
O=C(NCC1CCCO1)Nc1ccc(NC(=O)c2ccccn2)cc1 (stereo not drawn)	0.06
O=C1/C(=C/c2ccccc2OC(F)F)Oc2cc(O)ccc21	0.15
O=C(O)c1ccc2[nH]c(S)nc2c1	-0.13
CC1CC1c1ccc(CCC(=O)NCC2CCCN(Cc3cccs3)C2)o1 (stereo not drawn)	-0.03
Cc1ccc2c(c1)c(=O)n(C)c1nnc(CN3CCc4ccccc4C3)n21	-0.26
CCc1cc2c(N3CCN(Cc4ccc5c(c4)OCO5)CC3)ncnc2s1	-0.11
O=C(CCn1ccccc1=O)Nc1cccnc1	-0.14

15 entries out of the list, sorted by SMILES length, ascending:
Structure (SMILES)	TSA(with NAD+) / Primary screening (TSA) / delta Tm (K)
CC(C)C(C)CN (stereo not drawn)	0.06
O=C(O)c1ccc2[nH]c(S)nc2c1	-0.13
O=C(CCn1ccccc1=O)Nc1cccnc1	-0.14
OCCN(c1ncnc2c1oc1ccccc12)C1CC1	-0.19
COc1ccc(CCSc2nnc(-c3cccnc3)n2N)cc1	0.01
CCc1nsc(NCc2cccnc2N2CCC(C(N)=O)CC2)n1	-0.24
O=C1/C(=C/c2ccccc2OC(F)F)Oc2cc(O)ccc21	0.15
O=C(NCC1CCCO1)Nc1ccc(NC(=O)c2ccccn2)cc1 (stereo not drawn)	0.06
CCc1cc2c(N3CCN(Cc4ccc5c(c4)OCO5)CC3)ncnc2s1	-0.11
Cc1ccc2c(c1)c(=O)n(C)c1nnc(CN3CCc4ccccc4C3)n21	-0.26
Cn1cnc(-c2ccc(OCC(=O)Nc3cccc(C(=O)NC4CC4)c3)cc2)n1	-0.28
NS(=O)(=O)Nc1cccc(CNC(=O)CCCc2nc3ccccc3c(=O)[nH]2)c1	-0.03
COCCNc1oc2c(c1-c1ccccc1[N+](=O)[O-])c(=O)oc1c(C)cccc12	-0.12
N#Cc1ccccc1Sc1ccccc1C(=O)OCC(=O)NC(=O)NC12CC3CC(CC(C3)C1)C2	0.06
CCOc1ccccc1NC(=O)c1cccc(S(=O)(=O)NC(C)C23CC4CC(CC(C4)C2)C3)c1 (stereo not drawn)	0.17
